Test results published in article PMC4122344, “Heterodimerization of p45–p75 Modulates p75 Signaling: Structural Basis and Mechanism of Action” (PLoS Biology, 2014).
Results are given in words; binding and its absence hold for the method and conditions named. For some assays here: In cells and extracts the contact can be indirect. Some binding calls cover weakened binding; strength is not graded here. For some assays here: Where a sequence is shown, tags or fusion partners need not be part of it. Each block holds one molecule with its values, some of them ahead of it.

Protein sequences, listed by entry. Tags and fused reporters are not part of them. Residues count along the entry.
UniProt P07174, residues 30-425: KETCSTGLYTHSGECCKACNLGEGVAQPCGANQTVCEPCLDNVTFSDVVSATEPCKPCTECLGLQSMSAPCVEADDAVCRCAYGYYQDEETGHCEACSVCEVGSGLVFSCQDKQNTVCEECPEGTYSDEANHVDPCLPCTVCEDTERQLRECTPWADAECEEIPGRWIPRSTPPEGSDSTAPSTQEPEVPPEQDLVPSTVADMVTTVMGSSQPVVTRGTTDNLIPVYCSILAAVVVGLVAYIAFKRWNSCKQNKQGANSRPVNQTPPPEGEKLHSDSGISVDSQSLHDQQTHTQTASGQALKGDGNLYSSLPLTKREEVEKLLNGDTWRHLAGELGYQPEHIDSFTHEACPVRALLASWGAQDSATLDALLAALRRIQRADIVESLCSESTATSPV
UniProt Q13158: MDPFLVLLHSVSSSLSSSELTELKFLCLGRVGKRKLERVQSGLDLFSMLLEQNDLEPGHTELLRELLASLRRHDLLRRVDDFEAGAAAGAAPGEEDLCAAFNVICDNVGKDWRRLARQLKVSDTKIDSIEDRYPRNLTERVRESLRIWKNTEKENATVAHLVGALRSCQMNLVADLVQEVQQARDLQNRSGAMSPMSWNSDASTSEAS
UniProt Q9Z0W1, residues 32-427: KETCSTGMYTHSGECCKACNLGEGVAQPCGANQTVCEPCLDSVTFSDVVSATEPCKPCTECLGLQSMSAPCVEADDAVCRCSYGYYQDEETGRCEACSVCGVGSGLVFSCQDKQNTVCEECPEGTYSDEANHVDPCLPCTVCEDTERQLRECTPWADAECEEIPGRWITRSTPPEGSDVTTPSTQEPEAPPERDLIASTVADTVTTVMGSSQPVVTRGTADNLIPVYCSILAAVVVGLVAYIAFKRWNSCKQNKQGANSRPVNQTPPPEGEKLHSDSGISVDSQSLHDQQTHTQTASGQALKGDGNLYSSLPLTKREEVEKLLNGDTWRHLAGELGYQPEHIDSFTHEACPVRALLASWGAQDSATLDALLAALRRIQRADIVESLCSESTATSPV

Experiments:
[1] = target: T1, p45 D178R (full-length) (mouse) (UniProt Q8CJ26); assay: co-IP; HEK293 transfected with wild-type or mutant full-length p45 and Myc-p75
T1 sequence: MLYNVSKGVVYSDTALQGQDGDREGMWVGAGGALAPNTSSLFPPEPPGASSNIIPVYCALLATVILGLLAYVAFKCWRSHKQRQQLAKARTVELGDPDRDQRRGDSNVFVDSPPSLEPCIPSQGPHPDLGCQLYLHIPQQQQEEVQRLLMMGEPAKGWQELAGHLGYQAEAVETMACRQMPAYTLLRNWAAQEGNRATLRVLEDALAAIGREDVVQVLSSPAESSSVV

[2] = target: T2, p45 D178A (full-length) (mouse) (UniProt Q8CJ26); assay: as above
T2 sequence: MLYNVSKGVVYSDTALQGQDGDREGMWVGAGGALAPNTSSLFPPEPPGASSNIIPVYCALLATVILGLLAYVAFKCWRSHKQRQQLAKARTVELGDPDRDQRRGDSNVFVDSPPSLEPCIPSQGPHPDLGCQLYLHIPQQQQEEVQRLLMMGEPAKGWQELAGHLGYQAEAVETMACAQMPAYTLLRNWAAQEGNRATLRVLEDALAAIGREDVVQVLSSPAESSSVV

[3] = target: T3, p45 E173R (full-length) (mouse) (UniProt Q8CJ26); assay: as above
T3 sequence: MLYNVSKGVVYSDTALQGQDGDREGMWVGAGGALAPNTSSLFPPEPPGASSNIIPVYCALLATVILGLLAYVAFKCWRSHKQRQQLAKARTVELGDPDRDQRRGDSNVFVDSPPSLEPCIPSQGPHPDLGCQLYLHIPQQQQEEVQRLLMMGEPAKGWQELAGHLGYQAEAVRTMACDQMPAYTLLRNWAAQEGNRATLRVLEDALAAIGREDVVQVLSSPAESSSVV

[4] = target: T4, p45 C177H (full-length) (mouse) (UniProt Q8CJ26); assay: as above
T4 sequence: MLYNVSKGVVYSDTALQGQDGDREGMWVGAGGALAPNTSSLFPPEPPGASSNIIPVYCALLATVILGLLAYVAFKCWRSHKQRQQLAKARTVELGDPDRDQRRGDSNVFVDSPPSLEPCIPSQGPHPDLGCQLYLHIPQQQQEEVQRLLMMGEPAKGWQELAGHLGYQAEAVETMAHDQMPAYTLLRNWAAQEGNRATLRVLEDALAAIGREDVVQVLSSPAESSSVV

[5] = target: T5, p45 wild type (full-length, no tag named) (mouse) (UniProt Q8CJ26); assay: as above
T5 sequence: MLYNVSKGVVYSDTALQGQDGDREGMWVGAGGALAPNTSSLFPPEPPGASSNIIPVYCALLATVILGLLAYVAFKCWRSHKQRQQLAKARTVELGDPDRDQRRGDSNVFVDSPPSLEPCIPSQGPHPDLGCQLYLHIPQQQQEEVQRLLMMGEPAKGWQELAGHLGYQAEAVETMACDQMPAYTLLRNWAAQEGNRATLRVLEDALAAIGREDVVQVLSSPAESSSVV

Flag-p45 (mouse) [6] = target: T6, Flag-p45 (mouse) (UniProt Q8CJ26); assay: co-IP; V5-tagged proteins transfected into CrmA/Flag-p45/293 stable cells; lysates immunoprecipitated with anti-Flag, blotted with anti-V5
T6 sequence: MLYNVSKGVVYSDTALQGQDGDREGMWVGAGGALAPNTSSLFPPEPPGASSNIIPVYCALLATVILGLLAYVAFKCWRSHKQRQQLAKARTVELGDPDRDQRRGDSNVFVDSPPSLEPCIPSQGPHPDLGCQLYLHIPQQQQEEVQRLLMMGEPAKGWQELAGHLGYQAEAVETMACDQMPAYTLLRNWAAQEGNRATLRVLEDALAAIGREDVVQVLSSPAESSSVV

Flag-tagged human NgR [7] = target: T7, Flag-tagged human NgR (human, UniProt Q9BZR6 27-447); assay: co-IP; 293T cells co-transfected with V5-p45 or V5-p75 and Flag-NgR; immunoprecipitated with Flag antibody (M2)
T7 construct: Nogo-66 receptor (NgR), human; Printed both as Flag-hNgR and as NgR-Flag; also called Flag-hNgR; NgR-Flag; source: HEK293, transfected, in lysate
T7 sequence (looked up): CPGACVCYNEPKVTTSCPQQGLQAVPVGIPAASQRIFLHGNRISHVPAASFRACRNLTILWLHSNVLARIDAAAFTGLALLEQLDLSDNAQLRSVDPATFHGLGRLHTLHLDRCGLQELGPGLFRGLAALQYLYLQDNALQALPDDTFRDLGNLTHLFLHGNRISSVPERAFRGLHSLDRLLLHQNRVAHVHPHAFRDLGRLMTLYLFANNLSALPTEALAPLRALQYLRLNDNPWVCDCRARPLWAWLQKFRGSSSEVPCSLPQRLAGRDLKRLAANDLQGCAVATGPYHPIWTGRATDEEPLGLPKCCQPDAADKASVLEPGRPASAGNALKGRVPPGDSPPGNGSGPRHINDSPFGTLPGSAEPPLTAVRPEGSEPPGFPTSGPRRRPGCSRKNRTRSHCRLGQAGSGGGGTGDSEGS

[8] = target: T8, p45 (endogenous, P7 cerebellum) (mouse (endogenous in P7 cerebellum)) (UniProt Q8CJ26); assay: co-IP; P7 cerebellum extracts immunoprecipitated with anti-p75 ECD (9651) or anti-p45 ECD (6750) antibody, blotted with anti-p75 (Buster)
T8 sequence: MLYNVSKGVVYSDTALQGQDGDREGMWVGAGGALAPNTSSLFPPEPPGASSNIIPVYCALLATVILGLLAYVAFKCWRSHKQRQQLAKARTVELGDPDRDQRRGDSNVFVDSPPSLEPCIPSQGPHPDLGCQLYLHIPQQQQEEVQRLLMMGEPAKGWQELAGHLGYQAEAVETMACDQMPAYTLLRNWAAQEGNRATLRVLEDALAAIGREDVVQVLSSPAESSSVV

[9] = target: T9, p45-C58A (full-length) (mouse) (UniProt Q8CJ26); assay: co-IP; HEK293 transfected with p75 wild type or p75-C257A and p45 wild type or p45-C58A; Western blot
T9 sequence: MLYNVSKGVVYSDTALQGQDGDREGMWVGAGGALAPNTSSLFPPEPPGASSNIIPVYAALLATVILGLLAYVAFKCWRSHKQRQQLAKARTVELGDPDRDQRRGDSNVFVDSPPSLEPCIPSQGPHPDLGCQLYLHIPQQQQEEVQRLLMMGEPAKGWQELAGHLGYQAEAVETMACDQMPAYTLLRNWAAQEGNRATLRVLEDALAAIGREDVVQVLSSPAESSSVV

[10] = target: T5, p45 wild type (full-length, no tag named) (mouse); assay: as above
Flag-p45 (mouse) [11] = target: T6, Flag-p45 (mouse); assay: co-IP; HEK293 transfected with wild-type or mutant p75 and Flag-p45
Flag-tagged human NgR [12] = target: T7, Flag-tagged human NgR; assay: co-IP; HEK293 co-transfected with wild-type or mutant p75 and Flag-tagged NgR; p75 co-immunoprecipitated with NgR; blots quantified, wild type = 100%
[13] = target: T5, p45 wild type (full-length, no tag named) (mouse); assay: non-reducing SDS-PAGE and Western blot (disulfide-linked dimer); co-immunoprecipitates of p75 wild type or p75-C257A with p45 from HEK293 cells, reducing and non-reducing SDS-PAGE; band sensitive to DTT
[14] = target: p75 wild type (full-length, no tag named) (UniProt P07174); assay: non-reducing SDS-PAGE and Western blot (disulfide-linked dimer); p75 co-immunoprecipitated with NgR-Flag from HEK293 cells, run on non-reducing SDS-PAGE
[15] = target: p75 wild type (full-length, no tag named) (UniProt P07174); assay: co-IP; HEK293 co-transfected with p75, Flag-hNgR and p45 (varying amounts) or p45 deletion constructs; immunoprecipitated with anti-p75 (ICD) antibodies, probed with anti-Flag; RIPA lysis

Molecule: Myc-p75 (from UniProt P07174 30-425) (receptor)
binding [1]: binds
binding [2]: binds
binding [3]: binds
binding [4]: binds
binding [5]: binds

Molecule: V5-tagged p75 (from UniProt P07174 30-425) (receptor)
binding (Flag-p45 (mouse) [6]): binds
binding (Flag-tagged human NgR [7]): binds

Molecule: V5-tagged FADD (from UniProt Q13158 1-208)
binding (Flag-p45 (mouse) [6]): binds

Molecule: p75 wild type (full-length, no tag named) (from UniProt P07174 30-425) (receptor)
binding [9]: binds weakly
binding [10]: binds
binding (Flag-p45 (mouse) [11]): binds
binding (Flag-tagged human NgR [12]): binds
binding [13]: binds
binding [14]: binds

Next, values leading:

binding [8]: binds
Molecule: p75 (endogenous, P7 cerebellum) (from UniProt Q9Z0W1 32-427) (receptor)

binding (Flag-tagged human NgR [7]): no binding
B1: V5-tagged p45 (receptor, UniProt Q8CJ26 1-228)
chain: MLYNVSKGVVYSDTALQGQDGDREGMWVGAGGALAPNTSSLFPPEPPGASSNIIPVYCALLATVILGLLAYVAFKCWRSHKQRQQLAKARTVELGDPDRDQRRGDSNVFVDSPPSLEPCIPSQGPHPDLGCQLYLHIPQQQQEEVQRLLMMGEPAKGWQELAGHLGYQAEAVETMACDQMPAYTLLRNWAAQEGNRATLRVLEDALAAIGREDVVQVLSSPAESSSVV

binding [15]: binds
B2: Flag-tagged human NgR (receptor, UniProt Q9BZR6 27-447)
chain: CPGACVCYNEPKVTTSCPQQGLQAVPVGIPAASQRIFLHGNRISHVPAASFRACRNLTILWLHSNVLARIDAAAFTGLALLEQLDLSDNAQLRSVDPATFHGLGRLHTLHLDRCGLQELGPGLFRGLAALQYLYLQDNALQALPDDTFRDLGNLTHLFLHGNRISSVPERAFRGLHSLDRLLLHQNRVAHVHPHAFRDLGRLMTLYLFANNLSALPTEALAPLRALQYLRLNDNPWVCDCRARPLWAWLQKFRGSSSEVPCSLPQRLAGRDLKRLAANDLQGCAVATGPYHPIWTGRATDEEPLGLPKCCQPDAADKASVLEPGRPASAGNALKGRVPPGDSPPGNGSGPRHINDSPFGTLPGSAEPPLTAVRPEGSEPPGFPTSGPRRRPGCSRKNRTRSHCRLGQAGSGGGGTGDSEGS
